# Assay results as given in the supplement of paper PMC11006884.
# Chains of the proteins cited; added tags and fusions are not shown. Lines headed by an entry give the natural chain unless they say otherwise; changes in a name come on top.
# UniProt Q7Z6Z7, whole entry, looked up: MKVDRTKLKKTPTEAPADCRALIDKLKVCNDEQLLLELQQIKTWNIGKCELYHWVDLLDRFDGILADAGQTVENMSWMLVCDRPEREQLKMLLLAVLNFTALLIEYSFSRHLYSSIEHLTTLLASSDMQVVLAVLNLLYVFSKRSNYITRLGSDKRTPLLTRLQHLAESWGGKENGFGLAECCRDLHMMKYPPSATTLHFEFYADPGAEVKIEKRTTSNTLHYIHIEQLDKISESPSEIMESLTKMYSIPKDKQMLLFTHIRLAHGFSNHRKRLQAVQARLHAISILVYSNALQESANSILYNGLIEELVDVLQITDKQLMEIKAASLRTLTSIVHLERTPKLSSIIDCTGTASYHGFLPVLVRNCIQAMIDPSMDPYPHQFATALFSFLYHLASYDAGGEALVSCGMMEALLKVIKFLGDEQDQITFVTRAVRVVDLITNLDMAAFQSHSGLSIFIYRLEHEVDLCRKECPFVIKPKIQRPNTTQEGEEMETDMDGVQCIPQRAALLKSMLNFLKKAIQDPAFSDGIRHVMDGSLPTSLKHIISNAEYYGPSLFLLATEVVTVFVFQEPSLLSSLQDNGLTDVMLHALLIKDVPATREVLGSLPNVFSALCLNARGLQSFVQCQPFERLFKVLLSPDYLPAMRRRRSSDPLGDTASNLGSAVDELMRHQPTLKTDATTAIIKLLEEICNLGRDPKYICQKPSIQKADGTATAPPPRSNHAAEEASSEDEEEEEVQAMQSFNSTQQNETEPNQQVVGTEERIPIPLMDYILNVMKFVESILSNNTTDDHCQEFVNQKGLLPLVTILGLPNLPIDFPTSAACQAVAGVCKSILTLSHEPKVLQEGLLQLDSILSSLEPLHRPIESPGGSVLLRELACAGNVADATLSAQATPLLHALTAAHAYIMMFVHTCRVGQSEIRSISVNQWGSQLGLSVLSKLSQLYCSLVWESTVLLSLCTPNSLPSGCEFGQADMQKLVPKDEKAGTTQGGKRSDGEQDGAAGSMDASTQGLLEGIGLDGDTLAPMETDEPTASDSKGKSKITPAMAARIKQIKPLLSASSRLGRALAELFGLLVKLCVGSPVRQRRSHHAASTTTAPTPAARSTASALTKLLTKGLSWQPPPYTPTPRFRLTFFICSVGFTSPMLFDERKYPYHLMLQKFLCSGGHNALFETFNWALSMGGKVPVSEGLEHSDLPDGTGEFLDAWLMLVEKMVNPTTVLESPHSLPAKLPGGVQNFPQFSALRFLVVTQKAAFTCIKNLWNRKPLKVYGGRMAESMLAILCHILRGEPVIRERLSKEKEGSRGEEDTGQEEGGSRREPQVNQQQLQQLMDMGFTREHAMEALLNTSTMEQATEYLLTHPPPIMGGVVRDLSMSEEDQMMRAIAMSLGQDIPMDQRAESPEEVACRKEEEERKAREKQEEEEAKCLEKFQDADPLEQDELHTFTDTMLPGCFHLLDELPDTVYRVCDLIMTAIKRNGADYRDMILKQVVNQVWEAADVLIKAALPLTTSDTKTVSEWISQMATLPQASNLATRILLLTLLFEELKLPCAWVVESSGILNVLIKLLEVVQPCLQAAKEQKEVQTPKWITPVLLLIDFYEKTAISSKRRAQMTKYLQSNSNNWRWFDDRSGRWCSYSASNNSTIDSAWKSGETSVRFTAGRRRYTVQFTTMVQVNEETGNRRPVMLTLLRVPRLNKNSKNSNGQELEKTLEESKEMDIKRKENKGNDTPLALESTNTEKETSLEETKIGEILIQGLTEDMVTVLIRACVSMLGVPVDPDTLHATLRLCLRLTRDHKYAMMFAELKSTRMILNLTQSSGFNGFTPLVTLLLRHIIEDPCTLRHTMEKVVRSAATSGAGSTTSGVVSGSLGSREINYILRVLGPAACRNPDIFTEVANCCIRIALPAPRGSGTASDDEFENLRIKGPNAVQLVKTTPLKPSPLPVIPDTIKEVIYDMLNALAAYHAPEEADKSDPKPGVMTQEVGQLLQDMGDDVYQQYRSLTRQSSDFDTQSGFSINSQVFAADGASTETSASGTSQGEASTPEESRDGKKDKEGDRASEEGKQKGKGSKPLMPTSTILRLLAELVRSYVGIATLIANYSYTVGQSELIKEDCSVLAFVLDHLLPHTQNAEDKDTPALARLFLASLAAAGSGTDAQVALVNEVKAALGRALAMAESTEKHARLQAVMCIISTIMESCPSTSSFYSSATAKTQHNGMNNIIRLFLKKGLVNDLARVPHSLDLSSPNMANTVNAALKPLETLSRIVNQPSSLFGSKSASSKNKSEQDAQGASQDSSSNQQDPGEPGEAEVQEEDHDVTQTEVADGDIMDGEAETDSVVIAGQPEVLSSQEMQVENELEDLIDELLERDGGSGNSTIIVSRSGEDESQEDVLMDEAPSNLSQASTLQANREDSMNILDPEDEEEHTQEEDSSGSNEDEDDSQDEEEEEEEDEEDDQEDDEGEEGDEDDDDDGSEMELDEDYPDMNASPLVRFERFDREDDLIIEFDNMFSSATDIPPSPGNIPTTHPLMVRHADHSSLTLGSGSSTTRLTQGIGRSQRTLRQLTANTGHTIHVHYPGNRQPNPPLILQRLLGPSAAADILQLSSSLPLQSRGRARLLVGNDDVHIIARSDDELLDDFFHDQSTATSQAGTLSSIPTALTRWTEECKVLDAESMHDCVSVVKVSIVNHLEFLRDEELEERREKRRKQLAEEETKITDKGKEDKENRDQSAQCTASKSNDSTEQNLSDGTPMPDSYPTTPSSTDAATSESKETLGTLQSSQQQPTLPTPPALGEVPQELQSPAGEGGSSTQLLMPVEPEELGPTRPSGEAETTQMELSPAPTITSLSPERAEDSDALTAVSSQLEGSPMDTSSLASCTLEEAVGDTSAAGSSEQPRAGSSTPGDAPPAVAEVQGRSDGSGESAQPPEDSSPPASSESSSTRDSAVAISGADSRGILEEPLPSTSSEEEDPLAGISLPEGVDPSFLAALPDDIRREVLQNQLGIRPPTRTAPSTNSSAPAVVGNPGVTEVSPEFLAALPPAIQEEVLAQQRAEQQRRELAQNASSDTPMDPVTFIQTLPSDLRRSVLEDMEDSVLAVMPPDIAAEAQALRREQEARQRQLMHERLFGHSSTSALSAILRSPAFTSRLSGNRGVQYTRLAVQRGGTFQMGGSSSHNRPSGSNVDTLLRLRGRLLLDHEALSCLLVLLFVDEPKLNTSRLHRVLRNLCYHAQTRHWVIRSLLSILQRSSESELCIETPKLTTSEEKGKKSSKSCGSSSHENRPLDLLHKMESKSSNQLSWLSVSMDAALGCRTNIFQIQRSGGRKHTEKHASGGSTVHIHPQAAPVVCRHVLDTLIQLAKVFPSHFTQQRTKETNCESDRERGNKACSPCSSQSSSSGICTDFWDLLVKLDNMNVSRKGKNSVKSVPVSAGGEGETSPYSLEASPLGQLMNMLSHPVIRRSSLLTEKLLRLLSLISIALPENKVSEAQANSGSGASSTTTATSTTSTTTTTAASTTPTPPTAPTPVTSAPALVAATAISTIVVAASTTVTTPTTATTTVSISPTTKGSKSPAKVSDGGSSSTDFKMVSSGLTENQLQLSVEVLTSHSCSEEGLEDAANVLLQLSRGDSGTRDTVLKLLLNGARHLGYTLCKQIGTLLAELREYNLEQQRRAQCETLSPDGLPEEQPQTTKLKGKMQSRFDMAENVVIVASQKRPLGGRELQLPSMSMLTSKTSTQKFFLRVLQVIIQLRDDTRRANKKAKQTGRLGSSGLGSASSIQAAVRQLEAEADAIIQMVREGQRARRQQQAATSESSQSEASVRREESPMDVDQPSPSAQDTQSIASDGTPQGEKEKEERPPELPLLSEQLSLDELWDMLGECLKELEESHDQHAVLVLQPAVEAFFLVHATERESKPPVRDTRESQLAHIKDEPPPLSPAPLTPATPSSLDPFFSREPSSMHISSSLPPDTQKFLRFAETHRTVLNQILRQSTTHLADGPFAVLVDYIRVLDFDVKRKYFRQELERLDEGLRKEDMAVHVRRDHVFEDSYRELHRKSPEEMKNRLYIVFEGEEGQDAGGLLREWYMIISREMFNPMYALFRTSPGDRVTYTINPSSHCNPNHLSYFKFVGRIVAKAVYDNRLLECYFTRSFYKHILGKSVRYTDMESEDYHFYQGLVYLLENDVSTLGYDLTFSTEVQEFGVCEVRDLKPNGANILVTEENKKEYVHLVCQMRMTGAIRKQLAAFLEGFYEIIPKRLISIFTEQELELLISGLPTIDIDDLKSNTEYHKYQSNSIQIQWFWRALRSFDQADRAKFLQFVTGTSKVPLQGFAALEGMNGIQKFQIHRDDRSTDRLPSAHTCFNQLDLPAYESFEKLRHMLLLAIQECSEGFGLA
# UniProt Q8IXI1, whole entry, looked up: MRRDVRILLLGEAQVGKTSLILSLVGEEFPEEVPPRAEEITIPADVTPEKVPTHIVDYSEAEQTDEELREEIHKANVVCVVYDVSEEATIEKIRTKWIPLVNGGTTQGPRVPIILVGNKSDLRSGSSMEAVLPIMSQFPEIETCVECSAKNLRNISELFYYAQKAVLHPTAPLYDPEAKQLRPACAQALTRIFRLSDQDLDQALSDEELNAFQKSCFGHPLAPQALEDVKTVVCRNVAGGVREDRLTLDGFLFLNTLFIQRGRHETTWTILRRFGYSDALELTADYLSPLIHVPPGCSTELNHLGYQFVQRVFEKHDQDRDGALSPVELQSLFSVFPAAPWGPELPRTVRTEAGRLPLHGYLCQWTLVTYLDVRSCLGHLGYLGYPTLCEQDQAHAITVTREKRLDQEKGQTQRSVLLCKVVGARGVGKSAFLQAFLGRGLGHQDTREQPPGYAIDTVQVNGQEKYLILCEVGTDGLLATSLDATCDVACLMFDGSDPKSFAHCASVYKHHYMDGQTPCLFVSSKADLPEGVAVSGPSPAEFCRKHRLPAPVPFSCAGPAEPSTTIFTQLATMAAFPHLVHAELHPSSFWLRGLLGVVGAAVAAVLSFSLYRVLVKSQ
# UniProt Q7L5N1: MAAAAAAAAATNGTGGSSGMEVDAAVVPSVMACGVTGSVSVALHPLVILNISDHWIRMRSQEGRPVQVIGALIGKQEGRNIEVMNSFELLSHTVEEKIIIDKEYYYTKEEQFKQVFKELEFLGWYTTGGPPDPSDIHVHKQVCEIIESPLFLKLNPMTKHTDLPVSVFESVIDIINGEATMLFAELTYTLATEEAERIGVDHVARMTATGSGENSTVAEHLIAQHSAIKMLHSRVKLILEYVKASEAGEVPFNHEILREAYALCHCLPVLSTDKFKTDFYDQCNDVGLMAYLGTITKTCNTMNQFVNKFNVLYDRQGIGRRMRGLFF
# UniProt Q86VP6: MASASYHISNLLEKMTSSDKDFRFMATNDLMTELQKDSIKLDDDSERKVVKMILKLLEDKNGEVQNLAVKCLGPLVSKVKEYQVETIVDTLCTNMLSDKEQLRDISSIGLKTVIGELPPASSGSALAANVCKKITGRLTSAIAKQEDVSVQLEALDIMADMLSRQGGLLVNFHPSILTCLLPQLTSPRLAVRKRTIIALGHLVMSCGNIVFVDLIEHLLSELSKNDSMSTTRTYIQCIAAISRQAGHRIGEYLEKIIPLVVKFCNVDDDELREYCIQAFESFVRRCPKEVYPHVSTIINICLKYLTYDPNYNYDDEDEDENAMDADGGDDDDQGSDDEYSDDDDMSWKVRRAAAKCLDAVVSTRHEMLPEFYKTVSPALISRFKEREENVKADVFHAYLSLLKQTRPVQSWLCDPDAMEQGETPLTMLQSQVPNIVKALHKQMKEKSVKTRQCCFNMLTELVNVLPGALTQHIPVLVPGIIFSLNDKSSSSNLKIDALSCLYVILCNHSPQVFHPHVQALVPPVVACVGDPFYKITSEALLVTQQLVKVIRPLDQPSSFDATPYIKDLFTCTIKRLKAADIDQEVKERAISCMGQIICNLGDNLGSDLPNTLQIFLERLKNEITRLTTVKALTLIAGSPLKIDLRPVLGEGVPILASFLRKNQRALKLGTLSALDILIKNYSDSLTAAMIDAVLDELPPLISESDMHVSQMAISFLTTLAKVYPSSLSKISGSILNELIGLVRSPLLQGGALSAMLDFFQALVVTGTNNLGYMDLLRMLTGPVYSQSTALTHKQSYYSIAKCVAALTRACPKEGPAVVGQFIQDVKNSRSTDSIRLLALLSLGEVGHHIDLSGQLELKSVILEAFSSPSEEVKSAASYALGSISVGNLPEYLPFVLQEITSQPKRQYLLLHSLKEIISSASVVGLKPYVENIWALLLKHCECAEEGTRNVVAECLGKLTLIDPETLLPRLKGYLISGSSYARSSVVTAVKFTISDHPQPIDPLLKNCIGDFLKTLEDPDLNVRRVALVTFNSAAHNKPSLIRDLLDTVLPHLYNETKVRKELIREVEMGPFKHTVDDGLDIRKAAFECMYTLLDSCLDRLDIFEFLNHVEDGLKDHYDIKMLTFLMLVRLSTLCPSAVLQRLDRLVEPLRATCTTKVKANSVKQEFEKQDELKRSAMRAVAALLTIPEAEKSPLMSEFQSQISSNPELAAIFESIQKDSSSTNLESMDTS
# The list shows a part of the results, in another mix than the full data.
# Compound: COC(=O)C#Cc1ccccc1 [methyl 3-phenylpropiolate]
# Assay: log2 ratio of iodoacetamide-alkyne labeling of the cysteine site, DMSO over compound (competition); higher = stronger covalent engagement of the cysteine by the compound, active = 1 or more
# Details: 500 µM; treatment time 1 h; system: HEK293T cell lysate
# How it was run: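 HEK293T lysate (2 mg/mL) was treated with DMSO or electrophile (500 µM, 1 h, ambient temperature), then iodoacetamide alkyne (1 h), clicked to sCIP-TMT reagents, pooled, trypsin-digested overnight at 37 °C, streptavidin-enriched and acid-eluted. Peptides were run on Orbitrap Eclipse LC-MS/MS with FAIMS and quantified in FragPipe. The log2 competition ratio per cysteine is mean control-channel over mean compound-channel reporter intensity. Duplicate channels and three replicates were used, and cysteines quantified in only one replicate were excluded.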
row,Target,log2 ratio of iodoacetamide-alkyne labeling
1,CYFIP1 C98 (UniProt Q7L576),active: 1.78
2,UniProt Q86Y56_C409,inactive: 0.492
3,UniProt Q86Y56_C84,inactive: 0.294
4,ERMP1 C43 (UniProt Q7Z2K6),inactive: 0.649
5,IRF2BP2 C16 (UniProt Q7Z5L9),inactive: 0.113
6,ALDH16A1 C350 (UniProt Q8IZ83),inactive: 0.0503
7,DHX30 C346 (UniProt Q7L2E3),inactive: 0.258
8,HUWE1 C1278 (UniProt Q7Z6Z7),inactive: -0.239
9,RHOT2 C216 (UniProt Q8IXI1),inactive: 0.167
10,PARG C603 (UniProt Q86W56),inactive: -0.000887
11,DHX37 C1083 (UniProt Q8IY37),inactive: 0.258
12,UniProt Q7L1Q6_C35,inactive: -0.0927
13,HUWE1 C3658 (UniProt Q7Z6Z7),inactive: 0.24
14,DHX30 C309 (UniProt Q7L2E3),inactive: 0.448
15,IRF2BP1 C363 (UniProt Q8IU81),inactive: 0.0738
16,N4BP2 C1145 (UniProt Q86UW6),inactive: 0.418
17,SRRM1 C33 (UniProt Q8IYB3),inactive: 0.135
18,DHX30 C461 (UniProt Q7L2E3),inactive: 0.193
19,UniProt Q8IX01_C947,inactive: 0.442

row,Target,log2 ratio of iodoacetamide-alkyne labeling
1,HUWE1 C1628 (UniProt Q7Z6Z7),inactive: 0.213
2,COPS6 C283 (UniProt Q7L5N1),inactive: 0.171
3,IRF2BP2 C65 (UniProt Q7Z5L9),inactive: 0.21
4,CAND1 C179 (UniProt Q86VP6),inactive: 0.0348
5,WDR75 C12 (UniProt Q8IWA0),inactive: 0.0253
6,MEPCE C177 (UniProt Q7L2J0),inactive: 0.0621
7,KTN1 C303 (UniProt Q86UP2),inactive: 0.0888
8,UniProt Q86YR5_C497,inactive: 0.463
9,HUWE1 C612 (UniProt Q7Z6Z7),inactive: 0.202
10,PBRM1 C450 (UniProt Q86U86),inactive: 0.0283
11,UniProt Q7Z2T5_C320,inactive: 0.767
12,ANKLE2 C350 (UniProt Q86XL3),inactive: 0.000798
13,MEPCE C244 (UniProt Q7L2J0),inactive: 0.206
14,FTSJ3 C52 (UniProt Q8IY81),inactive: 0.086
15,CAND1 C92 (UniProt Q86VP6),inactive: -0.0312
16,RBBP6 C27 (UniProt Q7Z6E9),inactive: 0.0842
17,DCXR C138 (UniProt Q7Z4W1),inactive: 0.126
18,CAND1 C1007 (UniProt Q86VP6),inactive: 0.188

# Some of the entries so far, tab-delimited:
row	Target	log2 ratio of iodoacetamide-alkyne labeling
9	HUWE1 C612 (UniProt Q7Z6Z7)	inactive: 0.202
10	PBRM1 C450 (UniProt Q86U86)	inactive: 0.0283
